The text below walks through data of the supplement of paper PMC6331611.

The structures appear in SMILES notation. ± gives the standard deviation of the averaged measurements. Over roughly 1,600 compounds, “normalized growth (OD600, IQM-normalized) in LPM” has its median near 1; the lowest 2% begin near 0.014. The list shows a part of the results.

In this assay the test system is Salmonella enterica serovar Typhimurium SL1344. Kind of assay: normalized growth (OD600, IQM-normalized) in LPM (fraction of plate interquartile mean); higher = more bacterial growth (less inhibition). The note with it: LPM pH 5.8; 10 µM; 16 h.
On to `CC1=CC(=O)c2ccccc2C1=O`, for which the normalized growth was 0.984 ± 0.017.
For `C#C[C@]1(OC(C)=O)CC[C@H]2[C@@H]3CCC4=CC(=O)CC[C@@H]4[C@H]3CC[C@@]21C` the value was 1.14 ± 0.03; for `CCCCOC(=O)c1ccc(O)cc1`, 1.04 ± 0.02.
With `COCCCOc1cc(C[C@@H](C[C@H](N)[C@@H](O)C[C@H](C(=O)NCC(C)(C)C(N)=O)C(C)C)C(C)C)ccc1OC` the figure was 0.97 ± 0.033; with `CCCc1nc2c(C)cc(-c3nc4ccccc4n3C)cc2n1Cc1ccc(-c2ccccc2C(=O)O)cc1`, 1 ± 0.018; with `CCCCC1C(=O)N(c2ccccc2)N(c2ccccc2)C1=O`, 0.985 ± 0.018.
Consider `O=C(CCCCC(=O)Nc1c(I)cc(I)c(C(=O)O)c1I)Nc1c(I)cc(I)c(C(=O)O)c1I`, for which the normalized growth is 0.974 ± 0.021.
For `Cc1ccc(C(=O)C(C)CN2CCCCC2)cc1` (centres undefined) the value was 0.968 ± 0.03; for `CNCC[C@@H](Oc1ccccc1C)c1ccccc1`, 0.9663 ± 0.0022; for `COCCCOc1ccnc(C[S+]([O-])c2nc3ccccc3[nH]2)c1C` (centres undefined), 1 ± 0.02.
Turning to `O=C(O)Cc1cc(I)c(Oc2ccc(O)c(I)c2)c(I)c1`, the normalized growth came to 1.05 ± 0.0084.
For the molecule `CC(=O)OCC(=O)[C@@]12OC3(CCCC3)O[C@@H]1C[C@H]1[C@@H]3CCC4=CC(=O)C=C[C@]4(C)[C@@]3(F)[C@@H](O)C[C@@]12C`, the normalized growth was determined as 1.07 ± 0.022.
For `Cc1oc(=O)oc1CN1CCN(c2cc3c(cc2F)c(=O)c(C(=O)O)c2n3C(C)S2)CC1` (centres undefined), the normalized growth worked out at 0.00846 ± 7.6e-05.
In the case of `C=COCC(F)(F)F`, the normalized growth worked out at 0.991 ± 0.044.
As to `N[C@@H](CC(=O)N1CCn2c(nnc2C(F)(F)F)C1)Cc1cc(F)c(F)cc1F`, the normalized growth worked out at 1.026 ± 0.0062.
Molecule `O=C(Nc1ccccc1)OCC(CN1CCCCC1)OC(=O)Nc1ccccc1` (centres undefined) came in with a normalized growth of 0.903 ± 0.047.
`N=C(N)c1ccc(N=NNc2ccc(C(=N)N)cc2)cc1` yielded a normalized growth of 0.766 ± 0.035.
For `CO/N=C(\C(=O)N[C@@H]1C(=O)N2C(C(=O)O)=C(CSC(=O)c3ccco3)CS[C@H]12)c1csc(N)n1` the value was 0.11 ± 0.0058.
For `CCCC(=O)Nc1ccc(OCC(O)CNC(C)C)c(C(C)=O)c1` (centres undefined) the value was 0.963 ± 0.035; for `C[C@@H]1O[C@@H](OC[C@H]2O[C@@H](Oc3c(-c4ccc(O)c(O)c4)oc4cc(O)cc(O)c4c3=O)[C@H](O)[C@@H](O)[C@@H]2O)[C@H](O)[C@H](O)[C@H]1O`, 0.893 ± 0.13.
In turn, `COc1ccc2nc3cc(Cl)ccc3c(Nc3cc(CN4CCCC4)c(O)c(CN4CCCC4)c3)c2n1` had a normalized growth of 0.69 ± 0.061.
Consider `Nc1nc(=O)c2c([nH]1)NCC(CNc1ccc(C(=O)N[C@@H](CCC(=O)O)C(=O)O)cc1)N2C=O` (some centres undefined), for which the normalized growth was 0.948 ± 0.014.
`C=CCc1ccccc1OCC(O)CNC(C)C` (centres undefined) had a normalized growth of 0.895 ± 0.047.
For `NC[C@H]1CC[C@H](C(=O)O)CC1`, the normalized growth was 0.948 ± 0.047.
For the molecule `CCCCOc1ccc(CC(=O)NO)cc1`, the normalized growth stood at 0.819 ± 0.029.
For `CC(=O)OC(C)C[N+](C)(C)C` (centres undefined) the value was 1.12 ± 0.02; for `O=C(O)c1cc(=O)c2c(OCC(O)COc3cccc4oc(C(=O)O)cc(=O)c34)cccc2o1`, 0.977 ± 0.079.
`CC(=O)c1ccc2c(c1)N(CCCN1CCN(CCO)CC1)c1ccccc1S2` displayed a normalized growth of 0.869 ± 0.053.
With `OC[C@H]1O[C@H](O[C@H]2[C@H](O)[C@@H](O)C(O)O[C@@H]2CO)[C@H](O)[C@@H](O)[C@@H]1O` (some centres undefined), the normalized growth amounted to 1.06 ± 0.12.
With `CN(C)CCC(c1ccccc1)c1ccccn1` (centres undefined) the figure was 0.946 ± 0.076.
Molecule `CC(C)CCC[C@@H](C)[C@H]1CC[C@H]2[C@@H]3CC=C4C[C@@H](O)CC[C@]4(C)[C@H]3CC[C@]12C` showed a normalized growth of 1.08 ± 0.013.
In the case of `CCN(CC)C(=O)N1CCN(C)CC1`, the normalized growth amounted to 0.954 ± 0.031.
In the case of `O=P(O)(O)C(O)(Cc1cccnc1)P(=O)(O)O`, the normalized growth amounted to 1.06 ± 0.059.
With `CC(=O)[C@H]1CC[C@H]2[C@@H]3CC=C4C[C@@H](OC(=O)CCC(=O)O)CC[C@]4(C)[C@H]3CC[C@]12C` the figure was 1.02 ± 0.027; with `CC(CCc1ccc(O)cc1)NCC(O)c1ccc(O)cc1` (centres undefined), 0.916 ± 0.069.
Molecule `CCN(CCCc1ccccc1)CCCc1ccccc1` yielded a normalized growth of 1.11 ± 0.048.
Regarding `CCCCC(CC)COC(=O)c1ccccc1O` (centres undefined), the normalized growth amounted to 0.9742 ± 0.005.
With `CC[C@]1(O)C[C@@H]2CN(CCc3c([nH]c4ccccc34)[C@@](C(=O)OC)(c3cc4c(cc3OC)N(C)[C@H]3[C@@](O)(C(=O)OC)[C@H](OC(C)=O)[C@]5(CC)C=CCN6CC[C@]43[C@@H]65)C2)C1` the figure was 1.06 ± 0.075.
`NC(=O)NO` gave a normalized growth of 0.991 ± 0.043.
As to `Clc1ccccc1C(c1ccccc1)(c1ccccc1)n1ccnc1`, the normalized growth was 1.19 ± 0.017.
Regarding `CO/N=C1\CN(c2nc3c(cc2F)c(=O)c(C(=O)O)cn3C2CC2)CC1CN` (centres undefined), the normalized growth came to 0.0206 ± 0.00035.
In the case of `Clc1ccc(COC(Cn2ccnc2)c2ccc(Cl)cc2Cl)cc1` (centres undefined), the normalized growth came to 0.807 ± 0.051.
`CCCC(C(=O)OCCN(CC)CC)(c1ccccc1)c1ccccc1` displayed a normalized growth of 0.981 ± 0.053.
For `O=S(=O)(O)CCSSCCS(=O)(=O)O`, the normalized growth turned out to be 1.02 ± 0.069.
In the case of `CN1CCC[C@H]1c1cccnc1`, the normalized growth was determined as 1.05 ± 0.011.
As to `Cc1cc(CC(C)CC(C)(C)C)n(O)c(=O)c1` (centres undefined), the normalized growth is 0.0347 ± 0.011.
With `NC(=O)c1cccnc1` the figure was 0.988 ± 0.026.
For `Nc1nccs1` the value was 0.94 ± 0.028; for `Cn1c(=O)c2c(ncn2CC(O)CO)n(C)c1=O` (centres undefined), 1.11 ± 0.061.
